Here are results for 1 molecule from publication PMC12767443.

No constants are given. Whether binding was seen depends on the method and setting. Binding seen in cells or lysates may run through a third protein. Some binding calls cover weakened binding; strength is not graded here.

This experiment deals with T1, translocase of outer mitochondrial membrane 40 (human (endogenous in HuCCT1)) (UniProt O96008).
T1 sequence: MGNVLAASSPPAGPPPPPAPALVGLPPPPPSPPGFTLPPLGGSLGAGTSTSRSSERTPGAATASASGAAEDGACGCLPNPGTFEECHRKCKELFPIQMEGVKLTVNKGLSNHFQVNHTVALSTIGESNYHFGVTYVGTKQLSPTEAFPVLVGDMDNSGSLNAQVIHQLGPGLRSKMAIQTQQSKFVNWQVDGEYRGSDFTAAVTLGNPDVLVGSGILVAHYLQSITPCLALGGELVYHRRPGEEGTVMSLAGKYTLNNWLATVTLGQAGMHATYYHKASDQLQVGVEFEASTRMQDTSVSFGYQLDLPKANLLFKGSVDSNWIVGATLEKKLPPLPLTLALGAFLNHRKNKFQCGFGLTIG
The experiment can be described thus: co-IP; Pierce Classic Magnetic Bead IP/Co-IP kit; lysates of HuCCT1 cells transfected with KD-NC or KD-NKILA; immunoprecipitating antibodies (control IgG, anti-MTX1, anti-TOMM40) overnight at 4°C, magnetic beads 1 h at room temperature; Western blot for MTX1 and TOMM40; NKILA silencing reduced the binding. (In general: In western blotting, separated proteins are transferred to a membrane and probed.)

B1: metaxin 1 (protein, UniProt Q13505 1-466)
chain: MLLGGPPRSPRSGTSPKGPWSSTGHVQFGKSPQTWPRRTRPRSPEPAAPSGVRGSTWTRRRDSPRRAGPTALSRYVGHLWMGRRPPSPEARGPVPRSSAASRARRSLASPGISPGPLTATIGGAVAGGGPRQGRAEAHKEVFPGQRVGKMAAPMELFCWSGGWGLPSVDLDSLAVLTYARFTGAPLKVHKISNPWQSPSGTLPALRTSHGEVISVPHKIITHLRKEKYNADYDLSARQGADTLAFMSLLEEKLLPVLVHTFWIDTKNYVEVTRKWYAEAMPFPLNFFLPGRMQRQYMERLQLLTGEHRPEDEEELEKELYREARECLTLLSQRLGSQKFFFGDAPASLDAFVFSYLALLLQAKLPSGKLQVHLRGLHNLCAYCTHILSLYFPWDGAEVPPQRQTPAGPETEEEPYRRRNQILSVLAGLAAMVGYALLSGIVSIQRATPARAPGTRTLGMAEEDEEE
Consider B1, for which the binding entry is recorded as “binds”.
